The values that follow are results of earlier work, collected in patent US20040092527A1, “Itraconazole bioavailability” (priority 2000, published 2004).

The conditions of the series: in water and in acidic, e.g. aqueous, diluted hydrochloric acidic solvent (conditions as in the stomach).

Take `CCC(C)n1ncn(-c2ccc(N3CCN(c4ccc(OCC5COC(Cn6cncn6)(c6ccc(Cl)cc6Cl)O5)cc4)CC3)cc2)c1=O` (stereo not shown) [itraconazole]: the solubility result is on record as “insoluble”.
